Reference: paper PMC9917060
No constants are given. Whether binding was seen depends on the method and setting. Binding seen in cells or lysates may run through a third protein. A result given as binding can be weak or reduced; the word gives no strength. For some assays here: Sequences can lack the tags named with a protein. Each block holds one binder with its values, some of them ahead of it.

Chains of the proteins cited; added tags and fusions are not shown. Lines headed by an entry give the natural chain unless they say otherwise; changes in a name come on top.
UniProt Q7KSS7: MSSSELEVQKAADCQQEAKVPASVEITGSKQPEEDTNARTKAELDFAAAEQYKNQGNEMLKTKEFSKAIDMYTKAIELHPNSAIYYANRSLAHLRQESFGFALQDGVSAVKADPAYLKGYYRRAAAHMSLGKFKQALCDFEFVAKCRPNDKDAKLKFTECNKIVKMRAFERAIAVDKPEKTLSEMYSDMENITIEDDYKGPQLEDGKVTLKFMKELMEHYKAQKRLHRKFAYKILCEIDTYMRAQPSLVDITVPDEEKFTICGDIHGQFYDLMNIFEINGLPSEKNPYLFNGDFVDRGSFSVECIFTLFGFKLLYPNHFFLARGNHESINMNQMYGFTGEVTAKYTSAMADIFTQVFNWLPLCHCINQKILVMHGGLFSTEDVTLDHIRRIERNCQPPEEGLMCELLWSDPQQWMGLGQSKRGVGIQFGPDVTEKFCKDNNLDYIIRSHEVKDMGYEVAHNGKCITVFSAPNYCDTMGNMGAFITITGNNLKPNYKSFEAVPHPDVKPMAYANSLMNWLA

Legend:
[1] = target: GFP-PP5 (wild type Drosophila protein phosphatase 5) (Drosophila melanogaster); assay: co-IP; GFP-Trap magnetic agarose beads on cleared lysates of transiently co-transfected D.Mel-2 cells in EB buffer, 4 °C, 90 min; blots with anti-GFP and anti-FlagM2
[2] = target: CYFP-PP5 (Drosophila melanogaster); assay: split reporter; BiFC with split YFP in wild type D.Mel-2 cells, fixed and stained with anti-Sas6 or anti-Asl
[3] = target: CYFP-PP5 (Drosophila melanogaster); assay: split reporter; BiFC with split YFP in D.Mel-2 cells expressing mCherry-Sas6; 0.5 mM CuSO4 for 24 h; live cell imaging
[4] = target: GST-PP5 (wild type Drosophila PP5) (Drosophila melanogaster) (UniProt Q7KSS7); assay: pull-down; GST-IVTT in vitro binding assay: GST-tagged baits immobilized on glutathione sepharose 4B beads, incubated with 35S-methionine-labelled IVTT products; SDS-PAGE and autoradiography; only the target purified
[5] = target: GST-PP5^1−202aa (TPR motifs only) (Drosophila melanogaster); assay: as above
[6] = target: GST-PP5^203−520aa (catalytic domain only) (Drosophila melanogaster); assay: as above
[7] = target: GST-PP5^E97Q (hyperactive) (Drosophila melanogaster); assay: as above
[8] = target: GST-PP5^H326N (inactive) (Drosophila melanogaster); assay: as above

binding [1]: binds
B1: 3×Flag-Plk4-ND (non-degradable Drosophila Polo-like kinase 4) (enzyme, UniProt O97143 1-769)
chain: MLSNRAFGETIEDYEVQHLLGKGGFATVYKARCLHTHQDVAIKMIDKKLIQGTGLTNRVRQEVEIHSRLKHPSVLQLYTFFQDANYVYLVLELAHNGELHRYMNHIARPFTETEAASILKQVVAGLLYLHSHNIMHRDISLSNLLLSREMHVKIADFGLATQLKRPDERHMTMCGTPNYISPEVVSRTSHGLPADVWSVGCMLYTLLVGRPPFETDAVQSTLNKVVMSEYIMPAHLSYEAQDLINKLLKKLPHERITLEAVLCHPFMLKCSNGGHSAPGALNVFSQSMESGDAGIIAFASSDSRNSQQIRSVENSGPQQVLPQIREEFKQVHHKLPYEQTGLFGQASTGLAEPNWPGAAKSSAFCMEAGNVPNSKQASLKEDRISVPPLNTKRLLPTRYKTKNAIMSILRNGEVVLEFLKFRPTYNEDRINDICRISDDGQRIIIYQPDPGRGLPVREQPPDLQIPSGDCVYNYDNLPSKHWKKYIYGARFVGLVKSKTPKVTYFSTLGKCQLMETMTDFEIRFYSGAKLLKTPSEGLKVYDRNGMLLSDYSCSESRSLIEHGNECFTHCVNISNALEVAQTKDNSCFPVTIGRRPITDVQPAQRLDGLRDTTNIAFSTPKSNQGSINFSLSTISSTRNTSDFGTNCSRSNMLAAHQNIPIKRINVPEIGIATELSHGVVQVQFYDGSVVSVIPSMQGGGITYTQPNGTSTHFGKGDDLPFPVRDRVGQIPNIQLKLKTAPLLGSGRKTDYNNAMTPKTTTPYYNRMLL

binding [2]: binds | binding [3]: binds
B2: NYFP-Plk4 (enzyme, UniProt O97143 1-769)
chain: MLSNRAFGETIEDYEVQHLLGKGGFATVYKARCLHTHQDVAIKMIDKKLIQGTGLTNRVRQEVEIHSRLKHPSVLQLYTFFQDANYVYLVLELAHNGELHRYMNHIARPFTETEAASILKQVVAGLLYLHSHNIMHRDISLSNLLLSREMHVKIADFGLATQLKRPDERHMTMCGTPNYISPEVVSRTSHGLPADVWSVGCMLYTLLVGRPPFETDAVQSTLNKVVMSEYIMPAHLSYEAQDLINKLLKKLPHERITLEAVLCHPFMLKCSNGGHSAPGALNVFSQSMESGDSGIITFASSDSRNSQQIRSVENSGPQQVLPQIREEFKQVHHKLPYEQTGLFGQASTGLAEPNWPGAAKSSAFCMEAGNVPNSKQASLKEDRISVPPLNTKRLLPTRYKTKNAIMSILRNGEVVLEFLKFRPTYNEDRINDICRISDDGQRIIIYQPDPGRGLPVREQPPDLQIPSGDCVYNYDNLPSKHWKKYIYGARFVGLVKSKTPKVTYFSTLGKCQLMETMTDFEIRFYSGAKLLKTPSEGLKVYDRNGMLLSDYSCSESRSLIEHGNECFTHCVNISNALEVAQTKDNSCFPVTIGRRPITDVQPAQRLDGLRDTTNIAFSTPKSNQGSINFSLSTISSTRNTSDFGTNCSRSNMLAAHQNIPIKRINVPEIGIATELSHGVVQVQFYDGSVVSVIPSMQGGGITYTQPNGTSTHFGKGDDLPFPVRDRVGQIPNIQLKLKTAPLLGSGRKTDYNNAMTPKTTTPYYNRMLL

binding [4]: binds | binding [5]: binds weakly | binding [6]: binds | binding [7]: binds | binding [8]: binds weakly
B3: ^35S-Plk4 (Drosophila Plk4 synthesized by IVTT) (enzyme, UniProt O97143 1-769)
chain: MLSNRAFGETIEDYEVQHLLGKGGFATVYKARCLHTHQDVAIKMIDKKLIQGTGLTNRVRQEVEIHSRLKHPSVLQLYTFFQDANYVYLVLELAHNGELHRYMNHIARPFTETEAASILKQVVAGLLYLHSHNIMHRDISLSNLLLSREMHVKIADFGLATQLKRPDERHMTMCGTPNYISPEVVSRTSHGLPADVWSVGCMLYTLLVGRPPFETDAVQSTLNKVVMSEYIMPAHLSYEAQDLINKLLKKLPHERITLEAVLCHPFMLKCSNGGHSAPGALNVFSQSMESGDSGIITFASSDSRNSQQIRSVENSGPQQVLPQIREEFKQVHHKLPYEQTGLFGQASTGLAEPNWPGAAKSSAFCMEAGNVPNSKQASLKEDRISVPPLNTKRLLPTRYKTKNAIMSILRNGEVVLEFLKFRPTYNEDRINDICRISDDGQRIIIYQPDPGRGLPVREQPPDLQIPSGDCVYNYDNLPSKHWKKYIYGARFVGLVKSKTPKVTYFSTLGKCQLMETMTDFEIRFYSGAKLLKTPSEGLKVYDRNGMLLSDYSCSESRSLIEHGNECFTHCVNISNALEVAQTKDNSCFPVTIGRRPITDVQPAQRLDGLRDTTNIAFSTPKSNQGSINFSLSTISSTRNTSDFGTNCSRSNMLAAHQNIPIKRINVPEIGIATELSHGVVQVQFYDGSVVSVIPSMQGGGITYTQPNGTSTHFGKGDDLPFPVRDRVGQIPNIQLKLKTAPLLGSGRKTDYNNAMTPKTTTPYYNRMLL
modifications: 35S-methionine-labelled
